Test results published in paper PMC6597583.
These are yes or no findings as the source states them, for the method shown.

Protein sequences, listed by entry. Tags and fused reporters are not part of them. Lines headed by an entry give the natural chain unless they say otherwise; changes in a name come on top. Chains listed by the source or under a name are the forms on record and can include a tag or linker.
BnCYP18-4 (A0A078DMP0, form named): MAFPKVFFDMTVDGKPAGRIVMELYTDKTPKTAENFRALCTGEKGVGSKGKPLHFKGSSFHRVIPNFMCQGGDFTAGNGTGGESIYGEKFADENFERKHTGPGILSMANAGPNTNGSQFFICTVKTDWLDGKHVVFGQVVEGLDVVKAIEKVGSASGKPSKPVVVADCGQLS
BnCYP18-5 (A0A078IDN6, form named): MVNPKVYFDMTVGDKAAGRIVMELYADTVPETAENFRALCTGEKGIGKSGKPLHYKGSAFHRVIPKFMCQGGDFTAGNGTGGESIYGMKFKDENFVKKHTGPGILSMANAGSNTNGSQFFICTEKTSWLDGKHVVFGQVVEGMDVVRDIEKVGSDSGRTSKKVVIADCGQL
BnCYP19-1 (A0A078GRH6, form named): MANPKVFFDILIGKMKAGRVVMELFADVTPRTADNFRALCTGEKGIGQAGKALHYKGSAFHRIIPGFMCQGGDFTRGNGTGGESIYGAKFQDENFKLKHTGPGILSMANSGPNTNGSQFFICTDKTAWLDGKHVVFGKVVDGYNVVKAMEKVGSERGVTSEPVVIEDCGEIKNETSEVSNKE

Experiments:
Test in all cases: dynamic light scattering; protein solution in a quartz cuvette, 660 nm laser, scattering at 90°, CONTIN algorithm, Rh via Stokes-Einstein equation; both purified
[1] = target: BnCYP18-4 (Brassica napus)
[2] = target: BnCYP18-5 (Brassica napus)
[3] = target: BnCYP19-1 (Brassica napus)

Question: With “BnCYP18-4 (from UniProt A0A078DMP0 1-172) (enzyme)” as the substance, how does the binding [1] read?
Answer: no binding

Question: Which binding [2] does the source give for “BnCYP18-5 (from UniProt A0A078IDN6 1-171) (enzyme)” here?
Answer: no binding

Question: “BnCYP19-1 (from UniProt A0A078GRH6 1-182) (enzyme)” was tested. Which binding [3] did it give?
Answer: no binding
